Laboratory results from PubChem BioAssay AID1688 (National Center for Advancing Translational Sciences (NCATS), 2009).
The whole screen tested about 220,000 compounds, of which about 2,400 (1.1%) were called active. The inconclusive results got no clear call from the source; some entries with a clear call stand among them for comparison. Calls follow the shape of the dose curve; as a rule, active = well fitted inhibition curve with a large enough effect; inconclusive = small, poorly fitted or top-dose-only effect, or effect the other way; inactive = no such curve, though single readings can be large or run the other way. Potencies of inconclusive entries are doubtful fits and often do not repeat.

Test: qHTS Multiplex Assay to Identify Dual Action Probes in a Cell Model of Huntington: Aggregate Formation (GFP); also: nearly all actives have a fitted effect of over 60% in size
Details: PC12 HttQ103-GFP aggregates, Acumen cytometry, 40 h; activity change, negative = inhibition: at 46.1 µM (top of the series) unless noted
Summary of the method: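 Steps: seed 1500 PC12 HTTQ103-GFP cells/well; add tebufenozide, 100 nM final; add compound titration; add ATPLite reagent; quantify GFP aggregates by laser scanning cytometry.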
% is scaled to controls: 0 for no effect and ±100 for the full control effect; potency is read from the fitted curve at half-maximal effect.

Compound | Potency | activity change, negative = inhibition
COc1ccccc1CNC(=O)CSc1ccc(-c2ccccn2)nn1 | inactive | –
Cc1nn(C)c(C)c1CN(C)C(=O)c1cc2n(n1)C(C(F)(F)F)CC(c1cccs1)N2 (configuration not stated) | inconclusive: 12.6 µM [inhibitor, partial curve] | –
CC1CCc2c(C(=O)NCc3ccco3)csc2C1 (configuration not stated) | – | inactive: -4.87% [at 9.22 µM]
Cc1nn(Cc2ccccc2Cl)c(C)c1C(=O)Nc1nnc(C2CC2)s1 | inconclusive: 35.5 µM [inhibitor, single point] | –
O=C(CN1CC(=O)Oc2ccccc21)NCc1ccco1 | inconclusive: 11.2 µM [activator, partial curve] | –
CC(=O)c1ccccc1OCCn1nnc(-c2ccc(C)cc2)n1 | active: 20 µM | –
COc1ccc(C(c2nnnn2CC2CCCO2)N2CCN(c3cccc(C)c3C)CC2)cc1 (configuration not stated) | inconclusive: 15.8 µM [inhibitor, single point] | –
O=C(Nc1ccc(S(=O)(=O)N2CCc3ccccc32)cc1)c1ccco1 | inconclusive: 31.6 µM [inhibitor, single point] | –
CCC(C)N1C(=O)/C(=C/c2c(NCCCOC(C)C)nc3c(C)cccn3c2=O)SC1=S (configuration not stated) | inconclusive: 14.1 µM [inhibitor, single point] | –
Cc1cc(C(=O)CSc2nnnn2-c2ccc(O)cc2)c(C)n1Cc1ccc2c(c1)OCO2 | inconclusive: 25.1 µM [inhibitor, single point] | –
O=C(CCCNS(=O)(=O)c1cccc2nsnc12)NCc1ccccc1 | inactive | –
CN1CCc2c(C#N)c(N3CCCCC3)nc(NCc3ccccc3)c2C1 | inconclusive: 25.1 µM [inhibitor, single point] | –
CC(=O)c1ccc(NC(=O)N2CCN(c3cccc(Cl)c3)CC2)cc1 | inconclusive: 35.5 µM [inhibitor, single point] | –
COc1ccccc1NC=C1C(=O)OC(C)(C)OC1=O | – | inactive: 8.44% [at 9.22 µM]
O=C(C1CCCN(S(=O)(=O)c2ccccc2[N+](=O)[O-])C1)N1CCCC1 (configuration not stated) | inconclusive: 35.5 µM [inhibitor, partial curve] | –
Cc1sc(NC(=O)CCl)c(C(=O)c2ccccc2)c1C | inconclusive: 35.5 µM [inhibitor, single point] | –
COc1ccc(/C=N/n2c(=S)n(C)c3ccccc32)cc1OC | inconclusive: 0.631 µM [inhibitor, full curve] | –
Brc1nc(Br)n(Cc2ccccc2)n1 | inactive | –
COC(=O)c1cc(=O)n(Cc2ccc3c(c2)OCO3)c(=Nc2ccccc2)s1 | inconclusive: 31.6 µM [inhibitor, single point] | –
O=C(Nc1ccc(Cl)cc1)c1ccc(-n2cccn2)c([N+](=O)[O-])c1 | inconclusive: 28.2 µM [inhibitor, single point] | –
O=C(CN1C(=O)/C(=C/c2cccc(Br)c2)SC1=S)N1CCCC1 | inconclusive: 8.91 µM [activator, partial curve] | –

Exported with each value named: entries from further up.
O=C(CN1CC(=O)Oc2ccccc21)NCc1ccco1
  Potency: inconclusive: 11.2 µM [activator, partial curve]
Cc1cc(C(=O)CSc2nnnn2-c2ccc(O)cc2)c(C)n1Cc1ccc2c(c1)OCO2
  Potency: inconclusive: 25.1 µM [inhibitor, single point]
CN1CCc2c(C#N)c(N3CCCCC3)nc(NCc3ccccc3)c2C1
  Potency: inconclusive: 25.1 µM [inhibitor, single point]

Next part:

Compound | Potency | activity change, negative = inhibition
COC(CNC(=O)c1ccc2c(c1)nc(C)n2-c1ccc(F)c(F)c1)OC | inactive | –
CCn1c(=O)c(C(=O)Nc2ccsc2C(=O)OC)c(O)c2ccccc21 | active: 7.08 µM | –
CCOC(=O)c1ccc(-c2ccc(/C=N/NC(=O)CN(c3ccccc3Br)S(C)(=O)=O)o2)cc1 | inconclusive: 3.16 µM [inhibitor, partial curve] | –
CCOc1ccc(N/C=C/C(=O)c2ccccc2)c([N+](=O)[O-])c1 | inconclusive: 5.62 µM [activator, single point] | –
Cc1ccc(NC(=O)CSc2nnc(-c3n[nH]c4ccccc34)n2-c2ccccc2)c(C)c1 | inactive | –
Cn1ccnc1Sc1ccc(/C=N/NC(=O)c2ccccc2O)cc1[N+](=O)[O-] | inconclusive: 35.5 µM [activator, single point] | –
Cc1nn(C(C)(C)C)c(NC(=O)c2ccc(Cl)cc2)c1Br | – | inactive: -5.12% [at 9.22 µM]
O=C(Nc1ccc2c(c1)OCO2)c1ccc(Br)c(S(=O)(=O)N2CCCC2)c1 | active: 12.6 µM | –
CNC(=O)NC(=O)C(OC(=O)c1cccc(S(=O)(=O)N2CCCCC2)c1)c1ccccc1 (configuration not stated) | inconclusive: 2.51 µM [inhibitor, single point] | –
CCOc1ccc(-n2c(O)c(/C=N/NC(=O)C3COc4ccccc4O3)c3ccccc3c2=O)cc1 (configuration not stated) | inconclusive: 15.8 µM [inhibitor, single point] | –
O=c1[nH]c2ccc(Cl)cc2c(O)c1Cc1ccccc1 | – | inactive: 1.09% [at 9.22 µM]
C#CCOCCOCCOCCNc1nc(N2CCN(C(=O)[C@H](CCC(=O)O)n3cc(C(N)CO)nn3)CC2)nc(N2CCN(C(=O)[C@H](CCC(=O)O)n3cc(C(N)[C@H](C)CC)nn3)CC2)n1 (some centres not stated) | – | inactive: -12.2% [at 9.22 µM]
COc1ccc(CN2C(=O)/C(=C/c3ccncc3)SC2=S)cc1 | inconclusive: 22.4 µM [inhibitor, single point] | –
CC(NC(=O)Nc1ccc([N+](=O)[O-])cc1)C(c1ccccc1)N1CCOCC1 (configuration not stated) | inactive | –
O=C(c1ccc(F)cc1)c1c[nH]c(C(=O)NCc2cccnc2)c1 | inconclusive: 11.2 µM [inhibitor, partial curve, poor fit] | –
Cc1onc(-c2ccccc2Cl)c1C(=O)Nc1sc2c(c1C(N)=O)CCC(C)C2 (configuration not stated) | inconclusive: 12.6 µM [inhibitor, single point] | –
c1ccc(CCc2nn3c(-c4ccncc4)nnc3s2)cc1 | active: 1.12 µM | –
CC(C)Nc1nc(NC(C)C)nc(N(C)C#N)n1 | inconclusive: 6.31 µM [inhibitor, single point] | –
CCOC(=O)N1CCC(N2CCN(S(=O)(=O)c3ccc4ccccc4c3)CC2)CC1 | inconclusive: 10 µM [inhibitor, partial curve] | –
CN(C)S(=O)(=O)c1ccc(C(=O)NCC2(N3CCCCC3)CCCCC2)cc1 | inconclusive: 0.501 µM [activator, full curve, poor fit] | –
CCCCn1nc2cc(C(=O)NC3CCc4ccccc43)ccc2c1OCC (configuration not stated) | inconclusive: 35.5 µM [inhibitor, single point] | –
